Measured values published in PMC2998434, “Domain Swapping in Allosteric Modulation of DNA Specificity” (PLoS Biology, 2010).
Where a chain is given by its changes, count along the chain named. The exact form of at least one protein or probe is not confirmed. At least one verdict rests on a figure or table, not on a statement of the authors. Tags and fusion partners may be left off the protein sequences shown.

Experiments:
SgrAI P27W = target: T1, SgrAI P27W (UniProt Q9F6L0); test: EMSA (native PAGE); conditions: 10 mM Ca2+, 1 uM SgrAI, no HMWS with PCP, native PAGE: same binding buffer, 30 min at 4 C, gel 89 mM Tris-borate with 10 mM Ca2+. Wild-type Kd values in Table 2 are cited from Park 2010 and not listed, recombinant protein, residues 1-339, label: 5' HEX on both strands (FPA), 5' 32P (native gel), letters put together from the description
T1 sequence (looked up): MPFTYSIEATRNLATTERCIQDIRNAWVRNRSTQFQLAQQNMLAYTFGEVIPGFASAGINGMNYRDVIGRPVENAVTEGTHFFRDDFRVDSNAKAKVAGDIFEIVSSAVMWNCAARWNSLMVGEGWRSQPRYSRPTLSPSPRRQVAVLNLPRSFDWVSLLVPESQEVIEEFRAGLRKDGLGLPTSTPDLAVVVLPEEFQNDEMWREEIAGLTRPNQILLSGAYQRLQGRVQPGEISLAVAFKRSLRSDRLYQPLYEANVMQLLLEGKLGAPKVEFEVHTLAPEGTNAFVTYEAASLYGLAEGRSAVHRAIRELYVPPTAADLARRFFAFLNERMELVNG

SgrAI P27G = target: T2, SgrAI P27G (UniProt Q9F6L0); test: EMSA (native PAGE); conditions: 10 mM Ca2+, 1 uM SgrAI, no HMWS with PCP, native PAGE: same binding buffer, 30 min at 4 C, gel 89 mM Tris-borate with 10 mM Ca2+. Wild-type Kd values in Table 2 are cited from Park 2010 and not listed, recombinant protein, residues 1-339, label: 5' HEX on both strands (FPA), 5' 32P (native gel), letters put together from the description
T2 sequence (looked up): T1 sequence (looked up) with W27G

“AAGTCCACCGGTGGACTT (double strand) [18-1 (primary site)]”: binds (SgrAI P27W); binds (SgrAI P27G).
